Source: PMC7641770, “Novel polyadenylylation-dependent neutralization mechanism of the HEPN/MNT toxin/antitoxin system” (Nucleic Acids Research, 2020)
No constants are given. Whether binding was seen depends on the method and setting. In cells and extracts the contact can be indirect. Some entries that bind do so weakly or less than the wild type. Where a sequence is shown, tags or fusion partners need not be part of it.

Molecular target: T1, HepT toxin (SO_3166) of Shewanella oneidensis, C-terminal His6 tag, unmodified (co-produced with an inactive MntA variant) (Shewanella oneidensis) (UniProt Q8ECH6)
T1 sequence: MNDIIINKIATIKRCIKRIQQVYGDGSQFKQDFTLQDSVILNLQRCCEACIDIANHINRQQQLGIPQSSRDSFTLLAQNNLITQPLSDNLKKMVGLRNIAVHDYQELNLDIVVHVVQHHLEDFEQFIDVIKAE
Assay: pull-down

MntA G27A,S28T (SO_3165) of Shewanella oneidensis, untagged (from UniProt Q8ECH7 1-139) (enzyme)
binding: binds
